Publication PMC9606377
No constants are given. Whether binding was seen depends on the method and setting. In cells and extracts the contact can be indirect.

The chains behind the UniProt entries cited, without tags or fusion partners. Where a name states a change or a piece, a line headed by the entry shows the natural chain unless it says otherwise.
UniProt P08194: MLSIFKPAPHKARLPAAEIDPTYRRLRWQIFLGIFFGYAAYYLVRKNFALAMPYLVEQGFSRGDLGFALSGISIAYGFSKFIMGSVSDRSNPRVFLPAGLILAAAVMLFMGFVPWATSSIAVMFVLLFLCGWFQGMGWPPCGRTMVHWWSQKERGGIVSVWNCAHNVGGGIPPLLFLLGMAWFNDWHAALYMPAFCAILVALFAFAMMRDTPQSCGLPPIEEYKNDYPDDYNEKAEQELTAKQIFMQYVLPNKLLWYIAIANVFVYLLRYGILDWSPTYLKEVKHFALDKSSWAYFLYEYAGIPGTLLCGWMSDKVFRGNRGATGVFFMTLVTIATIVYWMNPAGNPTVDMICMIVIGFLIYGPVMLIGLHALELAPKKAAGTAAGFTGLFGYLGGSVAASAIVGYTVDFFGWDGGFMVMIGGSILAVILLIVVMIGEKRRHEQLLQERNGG
UniProt P0ABG7: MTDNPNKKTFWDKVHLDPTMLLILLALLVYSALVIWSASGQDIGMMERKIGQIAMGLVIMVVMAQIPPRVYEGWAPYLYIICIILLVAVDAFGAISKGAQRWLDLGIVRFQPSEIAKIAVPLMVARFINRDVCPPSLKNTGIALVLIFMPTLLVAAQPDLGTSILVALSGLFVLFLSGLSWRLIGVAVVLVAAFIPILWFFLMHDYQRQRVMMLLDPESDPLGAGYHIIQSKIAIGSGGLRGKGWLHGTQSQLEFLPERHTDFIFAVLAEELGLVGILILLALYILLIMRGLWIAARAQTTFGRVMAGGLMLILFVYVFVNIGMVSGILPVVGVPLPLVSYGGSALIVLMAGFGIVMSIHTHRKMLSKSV

Biological target: sfTq2^oxopt-GlpT (UniProt P08194)
Assay: FRET or BRET; in E. coli LMC500 cells with two plasmids, steady-state growth in GB1 medium at 28 °C, 15 µM IPTG for two mass doublings, fixed with 2.8% formaldehyde and 0.04% glutardialdehyde, overnight maturation; emission spectra by spectrofluorometer, unmixed; donor sfTq2^oxopt, acceptor RBS^short-mNG-v4

- binding: no binding
Substance: RBS^short-mNG-v4-RodA (from UniProt P0ABG7)
